PubChem BioAssay AID720710 – VTT Finland, 2013

Aim: 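siRNAs sensitising CCNE1-overexpressing U-2 OS cells to replication stress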 (primary screen)
System: human U-2 OS bone cancer cells, parental and a cyclin E (CCNE1) overexpressing line
Knock-down reagent: single siRNA against human genes, 1 µM siRNA in the printed spot mix
Timing: 67 h
Conditions: half the arrays: hydroxyurea 2 mM for 16 h, then 3 h recovery; other arrays untreated
Detection: 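EdU click signal imaged per DAPI-stained nucleus at 67 h; each spot divided by its subgrid median, then z-scored relative to non-targeting control spots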
Scale: EdU z-score, cyclin E line, hydroxyurea and EdU z-score, parental, hydroxyurea: higher = more DNA synthesis than non-targeting controls
Shown is a random part of about 1,380 reagents. 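One array per condition without replicates; hydroxyurea arrays received 2 mM for 16 h plus 3 h recovery.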 Reagents against one gene are numbered here. Not all columns of the deposit are shown.

TK2 #1 gave EdU z-score, cyclin E line, hydroxyurea -0.0792; EdU z-score, parental, hydroxyurea -0.614. TK2 #2 showed EdU z-score, cyclin E line, hydroxyurea 0.965; EdU z-score, parental, hydroxyurea 1.22. For SORD #1 the deposit lists EdU z-score, cyclin E line, hydroxyurea 0.779; EdU z-score, parental, hydroxyurea -1.49. Knock-down of SORD #2 resulted in: EdU z-score, cyclin E line, hydroxyurea 2.39; EdU z-score, parental, hydroxyurea -0.421. NFIB #1 showed EdU z-score, cyclin E line, hydroxyurea 1.04; EdU z-score, parental, hydroxyurea -1.52. For NFIB #2, the values are EdU z-score, cyclin E line, hydroxyurea 1.94; EdU z-score, parental, hydroxyurea 2.43.

H2AC14 #1 showed EdU z-score, cyclin E line, hydroxyurea -0.134; EdU z-score, parental, hydroxyurea -0.792. H2AC14 #2 gave EdU z-score, cyclin E line, hydroxyurea 0.307; EdU z-score, parental, hydroxyurea 2.37. After knock-down of TRIAP1 #1, the screen gave EdU z-score, cyclin E line, hydroxyurea -0.692; EdU z-score, parental, hydroxyurea -3.61. Against TRIAP1 #2, the values are EdU z-score, cyclin E line, hydroxyurea -0.293; EdU z-score, parental, hydroxyurea 0.418. With knock-down of CFAP65 #1 the results were EdU z-score, cyclin E line, hydroxyurea 0.61; EdU z-score, parental, hydroxyurea -0.759. With knock-down of CFAP65 #2 the results were EdU z-score, cyclin E line, hydroxyurea 1.1; EdU z-score, parental, hydroxyurea 3.14.

For RNF128 #1 the deposit lists EdU z-score, cyclin E line, hydroxyurea 0.0424; EdU z-score, parental, hydroxyurea -2.93. Against RNF128 #2 the deposit lists EdU z-score, cyclin E line, hydroxyurea 2.41; EdU z-score, parental, hydroxyurea -0.163. After knock-down of SETD5 #1, the screen gave EdU z-score, cyclin E line, hydroxyurea -1.3; EdU z-score, parental, hydroxyurea -0.99. After knock-down of SETD5 #2, the record shows EdU z-score, cyclin E line, hydroxyurea -1.09; EdU z-score, parental, hydroxyurea 1.68.

Reformatted: entries from further up
| Gene | reagent | EdU z-score, cyclin E line, hydroxyurea | EdU z-score, parental, hydroxyurea |
| --- | --- | --- | --- |
| RNF128 | 1 | 0.0424 | -2.93 |
| RNF128 | 2 | 2.41 | -0.163 |

Further records:
NF2 #1 scored EdU z-score, cyclin E line, hydroxyurea 0.0643; EdU z-score, parental, hydroxyurea -0.124. Knock-down of NF2 #2 resulted in: EdU z-score, cyclin E line, hydroxyurea 0.176; EdU z-score, parental, hydroxyurea 0.997. Knock-down of ZFAT #1 came out at: EdU z-score, cyclin E line, hydroxyurea -0.0513; EdU z-score, parental, hydroxyurea -1.97. Knock-down of ZFAT #2 resulted in: EdU z-score, cyclin E line, hydroxyurea 0.139; EdU z-score, parental, hydroxyurea -0.269. For ZNRF1 #1, the entry reads EdU z-score, cyclin E line, hydroxyurea 0.00383; EdU z-score, parental, hydroxyurea -2.07. For ZNRF1 #2 the deposit lists EdU z-score, cyclin E line, hydroxyurea 0.85; EdU z-score, parental, hydroxyurea -1.

SOX1 #1 gave EdU z-score, cyclin E line, hydroxyurea -1.15; EdU z-score, parental, hydroxyurea -2.62. Depletion of SOX1 #2 resulted in: EdU z-score, cyclin E line, hydroxyurea -0.913; EdU z-score, parental, hydroxyurea 1.75. With knock-down of HELZ2 #1, the screen gave EdU z-score, cyclin E line, hydroxyurea -0.398; EdU z-score, parental, hydroxyurea -2.83. With knock-down of HELZ2 #2, the screen gave EdU z-score, cyclin E line, hydroxyurea 1.04; EdU z-score, parental, hydroxyurea 3.38. VPS4B #1 scored EdU z-score, cyclin E line, hydroxyurea -0.95; EdU z-score, parental, hydroxyurea -4.3. Against VPS4B #2, the entry reads EdU z-score, cyclin E line, hydroxyurea 0.557; EdU z-score, parental, hydroxyurea 2.38.

Against MDC1 #1 the deposit lists EdU z-score, cyclin E line, hydroxyurea -0.906; EdU z-score, parental, hydroxyurea -0.28. MDC1 #2 gave EdU z-score, cyclin E line, hydroxyurea 3.11; EdU z-score, parental, hydroxyurea 1.7. Depletion of PPFIA2 #1 gave: EdU z-score, cyclin E line, hydroxyurea 0.616; EdU z-score, parental, hydroxyurea -1.57. With knock-down of PPFIA2 #2, the screen gave EdU z-score, cyclin E line, hydroxyurea 1.84; EdU z-score, parental, hydroxyurea 2.69.
